This assay has as its target T1, Tap-tagged Not5 (S. cerevisiae) (UniProt Q12514).
T1 sequence: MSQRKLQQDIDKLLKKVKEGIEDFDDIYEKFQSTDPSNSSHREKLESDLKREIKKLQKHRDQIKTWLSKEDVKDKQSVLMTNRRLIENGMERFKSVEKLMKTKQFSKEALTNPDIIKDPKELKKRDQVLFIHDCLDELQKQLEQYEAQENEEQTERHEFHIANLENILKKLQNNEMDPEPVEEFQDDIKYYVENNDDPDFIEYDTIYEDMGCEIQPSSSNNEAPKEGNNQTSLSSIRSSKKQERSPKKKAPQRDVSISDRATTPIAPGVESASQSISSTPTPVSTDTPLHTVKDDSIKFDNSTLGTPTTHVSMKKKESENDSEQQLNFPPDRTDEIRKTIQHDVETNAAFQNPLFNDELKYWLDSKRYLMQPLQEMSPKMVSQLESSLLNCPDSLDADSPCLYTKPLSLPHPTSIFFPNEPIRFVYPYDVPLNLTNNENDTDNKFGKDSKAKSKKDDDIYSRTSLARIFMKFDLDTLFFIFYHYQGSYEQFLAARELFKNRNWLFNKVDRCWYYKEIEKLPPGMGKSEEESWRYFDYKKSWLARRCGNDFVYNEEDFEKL
The assay can be described thus: affinity purification with mass spectrometry; Tap-tagged Not5 purified, purified proteins on a native gel stained with Coomassie, the entire lane cut in slices and analysed by LC/MS/MS.

Chains of the proteins cited; added tags and fusions are not shown.
UniProt Q03940: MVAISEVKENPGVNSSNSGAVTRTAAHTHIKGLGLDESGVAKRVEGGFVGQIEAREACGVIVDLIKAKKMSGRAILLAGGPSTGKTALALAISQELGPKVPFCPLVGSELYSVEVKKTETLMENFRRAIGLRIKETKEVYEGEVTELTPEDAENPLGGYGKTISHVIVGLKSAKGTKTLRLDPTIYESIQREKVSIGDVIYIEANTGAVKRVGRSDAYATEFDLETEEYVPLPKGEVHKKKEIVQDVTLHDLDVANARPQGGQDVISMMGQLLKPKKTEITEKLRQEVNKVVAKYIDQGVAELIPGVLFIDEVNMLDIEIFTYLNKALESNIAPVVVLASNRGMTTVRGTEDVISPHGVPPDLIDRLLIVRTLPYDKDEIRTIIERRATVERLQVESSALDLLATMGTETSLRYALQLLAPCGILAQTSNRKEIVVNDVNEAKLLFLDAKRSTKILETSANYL
UniProt Q12464: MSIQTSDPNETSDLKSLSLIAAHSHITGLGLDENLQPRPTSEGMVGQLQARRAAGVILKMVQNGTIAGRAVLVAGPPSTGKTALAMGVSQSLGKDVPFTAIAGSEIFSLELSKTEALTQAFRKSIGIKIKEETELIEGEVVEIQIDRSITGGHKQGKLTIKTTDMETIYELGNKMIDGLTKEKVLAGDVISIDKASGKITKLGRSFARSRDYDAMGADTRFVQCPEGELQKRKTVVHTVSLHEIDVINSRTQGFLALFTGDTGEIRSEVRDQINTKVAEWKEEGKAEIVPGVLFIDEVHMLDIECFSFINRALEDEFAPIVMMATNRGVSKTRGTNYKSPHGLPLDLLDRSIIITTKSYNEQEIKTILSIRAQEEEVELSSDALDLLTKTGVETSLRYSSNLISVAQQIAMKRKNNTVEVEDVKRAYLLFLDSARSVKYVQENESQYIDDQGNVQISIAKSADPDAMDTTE

The values that follow come from publication PMC4207488.

These are yes or no findings as the source states them, for the method shown. In cells and extracts the contact can be indirect. These calls come from enrichment with a bait or labelling near it, and not all partners need be listed. Sequences can lack the tags named with a protein.

Take Rvb1 (from UniProt Q03940 1-463): the binding result is “binds”.

For the substance Rvb2 (from UniProt Q12464 1-471), the binding result is listed as “binds”.
